Assay results taken from the supplement of paper PMC11546906.
Where a name gives a salt, the structure may show the parent alone. Some of the results follow. Single values are uncertain here, since repeats match poorly.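 A screen tested FDA-approved drugs combined with one-eighth-MIC colistin against a clinical mcr-1-positive, multidrug-resistant E. coli isolate, measuring OD600 at 24 h. Controls were untreated bacteria (growth) and broth alone (blank). An OD600 under 0.2 marked a combination as active.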

Test system: Escherichia coli 42 (mcr-1-positive clinical isolate)
Experiment: OD600 after 24 h growth with compound plus colistin (absorbance units (OD600)); higher = more bacterial growth (less inhibition)
Conditions: first compound 25 µM; colistin concentration 0.5 ug/mL; incubation time 24 h; 37 °C

Structure (SMILES)	OD600
CCc1cccc2c3c([nH]c12)C(CC)(CC(=O)O)OCC3 (stereo not drawn) [Etodolac] + CCC(C)CCCC(=O)N[C@@H](CCN)C(=O)N[C@H](C(=O)N[C@@H](CCN)C(=O)N[C@H]1CCNC(=O)[C@H]([C@@H](C)O)NC(=O)[C@H](CCN)NC(=O)[C@H](CCN)NC(=O)[C@H](CC(C)C)NC(=O)[C@@H](CC(C)C)NC(=O)[C@H](CCN)NC1=O)[C@@H](C)O [colistin]	inactive: 1
O=C(O)CCCCCCCC(=O)O [Azelaic acid] + CCC(C)CCCC(=O)N[C@@H](CCN)C(=O)N[C@H](C(=O)N[C@@H](CCN)C(=O)N[C@H]1CCNC(=O)[C@H]([C@@H](C)O)NC(=O)[C@H](CCN)NC(=O)[C@H](CCN)NC(=O)[C@H](CC(C)C)NC(=O)[C@@H](CC(C)C)NC(=O)[C@H](CCN)NC1=O)[C@@H](C)O [colistin]	inactive: 0.864
COc1ccccc1OCC(O)COC(N)=O (stereo not drawn) [Methocarbamol] + CCC(C)CCCC(=O)N[C@@H](CCN)C(=O)N[C@H](C(=O)N[C@@H](CCN)C(=O)N[C@H]1CCNC(=O)[C@H]([C@@H](C)O)NC(=O)[C@H](CCN)NC(=O)[C@H](CCN)NC(=O)[C@H](CC(C)C)NC(=O)[C@@H](CC(C)C)NC(=O)[C@H](CCN)NC1=O)[C@@H](C)O [colistin]	inactive: 0.94
C[C@]1(Cn2ccnn2)[C@H](C(=O)O)N2C(=O)C[C@H]2S1(=O)=O [Tazobactam] + CCC(C)CCCC(=O)N[C@@H](CCN)C(=O)N[C@H](C(=O)N[C@@H](CCN)C(=O)N[C@H]1CCNC(=O)[C@H]([C@@H](C)O)NC(=O)[C@H](CCN)NC(=O)[C@H](CCN)NC(=O)[C@H](CC(C)C)NC(=O)[C@@H](CC(C)C)NC(=O)[C@H](CCN)NC1=O)[C@@H](C)O [colistin]	inactive: 1.03
CNC(=O)c1ccccc1Sc1ccc2c(/C=C/c3ccccn3)n[nH]c2c1 [Axitinib] + CCC(C)CCCC(=O)N[C@@H](CCN)C(=O)N[C@H](C(=O)N[C@@H](CCN)C(=O)N[C@H]1CCNC(=O)[C@H]([C@@H](C)O)NC(=O)[C@H](CCN)NC(=O)[C@H](CCN)NC(=O)[C@H](CC(C)C)NC(=O)[C@@H](CC(C)C)NC(=O)[C@H](CCN)NC1=O)[C@@H](C)O [colistin]	inactive: 0.954
O=C(O)c1ccc(-n2nc(-c3ccccc3O)nc2-c2ccccc2O)cc1 [Deferasirox] + CCC(C)CCCC(=O)N[C@@H](CCN)C(=O)N[C@H](C(=O)N[C@@H](CCN)C(=O)N[C@H]1CCNC(=O)[C@H]([C@@H](C)O)NC(=O)[C@H](CCN)NC(=O)[C@H](CCN)NC(=O)[C@H](CC(C)C)NC(=O)[C@@H](CC(C)C)NC(=O)[C@H](CCN)NC1=O)[C@@H](C)O [colistin]	inactive: 1.02
O=C(Nc1ccc([N+](=O)[O-])cc1Cl)c1cc(Cl)ccc1O [Niclosamide] + CCC(C)CCCC(=O)N[C@@H](CCN)C(=O)N[C@H](C(=O)N[C@@H](CCN)C(=O)N[C@H]1CCNC(=O)[C@H]([C@@H](C)O)NC(=O)[C@H](CCN)NC(=O)[C@H](CCN)NC(=O)[C@H](CC(C)C)NC(=O)[C@@H](CC(C)C)NC(=O)[C@H](CCN)NC1=O)[C@@H](C)O [colistin]	active: 0.038
CC(=O)OCC(CCn1cnc2cnc(N)nc21)COC(C)=O [Famciclovir] + CCC(C)CCCC(=O)N[C@@H](CCN)C(=O)N[C@H](C(=O)N[C@@H](CCN)C(=O)N[C@H]1CCNC(=O)[C@H]([C@@H](C)O)NC(=O)[C@H](CCN)NC(=O)[C@H](CCN)NC(=O)[C@H](CC(C)C)NC(=O)[C@@H](CC(C)C)NC(=O)[C@H](CCN)NC1=O)[C@@H](C)O [colistin]	inactive: 0.927
N=C(N)NC(=O)Cc1c(Cl)cccc1Cl [Guanfacine hydrochloride] + CCC(C)CCCC(=O)N[C@@H](CCN)C(=O)N[C@H](C(=O)N[C@@H](CCN)C(=O)N[C@H]1CCNC(=O)[C@H]([C@@H](C)O)NC(=O)[C@H](CCN)NC(=O)[C@H](CCN)NC(=O)[C@H](CC(C)C)NC(=O)[C@@H](CC(C)C)NC(=O)[C@H](CCN)NC1=O)[C@@H](C)O [colistin]	inactive: 0.74
S=c1nc[nH]c2nc[nH]c12 [6-Mercaptopurine] + CCC(C)CCCC(=O)N[C@@H](CCN)C(=O)N[C@H](C(=O)N[C@@H](CCN)C(=O)N[C@H]1CCNC(=O)[C@H]([C@@H](C)O)NC(=O)[C@H](CCN)NC(=O)[C@H](CCN)NC(=O)[C@H](CC(C)C)NC(=O)[C@@H](CC(C)C)NC(=O)[C@H](CCN)NC1=O)[C@@H](C)O [colistin]	inactive: 0.952
O=C(O[C@H]1CN2CCC1CC2)N1CCc2ccccc2[C@@H]1c1ccccc1 [Solifenacin succinate] + CCC(C)CCCC(=O)N[C@@H](CCN)C(=O)N[C@H](C(=O)N[C@@H](CCN)C(=O)N[C@H]1CCNC(=O)[C@H]([C@@H](C)O)NC(=O)[C@H](CCN)NC(=O)[C@H](CCN)NC(=O)[C@H](CC(C)C)NC(=O)[C@@H](CC(C)C)NC(=O)[C@H](CCN)NC1=O)[C@@H](C)O [colistin]	inactive: 0.962
CC1=C(C/C=C(\C)CCC[C@H](C)CCC[C@H](C)CCCC(C)C)C(=O)c2ccccc2C1=O [Vitamin K1] + CCC(C)CCCC(=O)N[C@@H](CCN)C(=O)N[C@H](C(=O)N[C@@H](CCN)C(=O)N[C@H]1CCNC(=O)[C@H]([C@@H](C)O)NC(=O)[C@H](CCN)NC(=O)[C@H](CCN)NC(=O)[C@H](CC(C)C)NC(=O)[C@@H](CC(C)C)NC(=O)[C@H](CCN)NC1=O)[C@@H](C)O [colistin]	inactive: 1.12
Cc1onc(-c2ccccc2)c1-c1ccc(S(N)(=O)=O)cc1 [Valdecoxib] + CCC(C)CCCC(=O)N[C@@H](CCN)C(=O)N[C@H](C(=O)N[C@@H](CCN)C(=O)N[C@H]1CCNC(=O)[C@H]([C@@H](C)O)NC(=O)[C@H](CCN)NC(=O)[C@H](CCN)NC(=O)[C@H](CC(C)C)NC(=O)[C@@H](CC(C)C)NC(=O)[C@H](CCN)NC1=O)[C@@H](C)O [colistin]	inactive: 0.986

A portion of the results above, for reference:
Structure (SMILES)	OD600
S=c1nc[nH]c2nc[nH]c12 [6-Mercaptopurine] + CCC(C)CCCC(=O)N[C@@H](CCN)C(=O)N[C@H](C(=O)N[C@@H](CCN)C(=O)N[C@H]1CCNC(=O)[C@H]([C@@H](C)O)NC(=O)[C@H](CCN)NC(=O)[C@H](CCN)NC(=O)[C@H](CC(C)C)NC(=O)[C@@H](CC(C)C)NC(=O)[C@H](CCN)NC1=O)[C@@H](C)O [colistin]	inactive: 0.952
O=C(O[C@H]1CN2CCC1CC2)N1CCc2ccccc2[C@@H]1c1ccccc1 [Solifenacin succinate] + CCC(C)CCCC(=O)N[C@@H](CCN)C(=O)N[C@H](C(=O)N[C@@H](CCN)C(=O)N[C@H]1CCNC(=O)[C@H]([C@@H](C)O)NC(=O)[C@H](CCN)NC(=O)[C@H](CCN)NC(=O)[C@H](CC(C)C)NC(=O)[C@@H](CC(C)C)NC(=O)[C@H](CCN)NC1=O)[C@@H](C)O [colistin]	inactive: 0.962
